Measurements reported in patent publication US20210070876A1.
No constants are given. Whether binding was seen depends on the method and setting. Some binding calls cover weakened binding; strength is not graded here. For some of these results: Sequences can lack the tags named with a protein.

T1: His-tagged human CD73 ECD (human) (UniProt P21589)
T1 sequence: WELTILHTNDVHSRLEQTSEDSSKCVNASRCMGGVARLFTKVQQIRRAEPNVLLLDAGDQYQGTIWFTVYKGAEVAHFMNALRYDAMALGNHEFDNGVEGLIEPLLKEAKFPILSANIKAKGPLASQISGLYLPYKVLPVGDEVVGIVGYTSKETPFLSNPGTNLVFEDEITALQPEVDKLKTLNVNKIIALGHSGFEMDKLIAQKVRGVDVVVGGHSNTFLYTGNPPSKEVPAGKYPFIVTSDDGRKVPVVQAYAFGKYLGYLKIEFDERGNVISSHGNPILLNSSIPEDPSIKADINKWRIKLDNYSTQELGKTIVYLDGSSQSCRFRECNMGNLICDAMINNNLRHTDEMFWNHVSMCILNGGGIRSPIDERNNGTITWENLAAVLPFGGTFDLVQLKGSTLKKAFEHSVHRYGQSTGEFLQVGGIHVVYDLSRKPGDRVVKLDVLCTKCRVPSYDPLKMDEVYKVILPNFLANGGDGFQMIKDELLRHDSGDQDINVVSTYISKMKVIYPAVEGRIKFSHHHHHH


Tests used:
[1] = molecular target: T1, His-tagged human CD73 ECD (human); test: SEC-MALS, antibody mixed with CD73-His
[2] = molecular target: T1, His-tagged human CD73 ECD (human); test: SPR, mAb captured, His-tagged CD73 ECD injected
[3] = molecular target: cynomolgus CD73 expressed on cells (cynomolgus monkey (Macaca fascicularis)); test: flow cytometry, CHO-S cells transiently expressing cynomolgus CD73
[4] = molecular target: T1, His-tagged human CD73 ECD (human); test: SEC-MALS (refractive index trace) of antibody mixed with His-tagged CD73 ECD at the ratios shown
[5] = molecular target: cynomolgus CD73 expressed on cells (cynomolgus monkey (Macaca fascicularis)); test: flow cytometry on CHO-S cells transiently expressing cynomolgus CD73, AF647 anti-human IgG (H+L) secondary, GeoMean

Row | binding [1] | binding [2] | binding [3] | binding [4] | binding [5] | Binder
1 | binds | binds | binds | binds | binds | antibody 21046 (antibody, human IgG1, kappa, L234A L235A, V domains shown) VH: EVQLVESGGGLVQPGRSLRLSCVASGFTFDDYAMHWVRQAPGKGLEWVSGISWNSGSIGYADSVKGRFTISRDNAKNSLYLQMNSLRAEDTAFYYCAQGGYAILTALEYWGQGTLVTVSS VL: DIQMTQSPSSLSASVGDRVTITCRASQGISNYLAWFQQKPGKAPKSLIYAASSLQSGVPSKFSGSGSGTDFTLTISSLQPEDFATYYCQQYNSYPLTFGGGTKVEIKR
2 | binds | binds | binds | binds | binds | antibody 21163 (antibody, human IgG1, kappa, L234A L235A, V domains shown) VH: EVQLVESGGGLVQPGGSLRLSCAASGFSFSTYWMNWVRQAPGKGLEWVANIKQDGSEKYYVDSVKGRFTISRDNAKNSLYLQMNSLRAEDTAVYYCARDISSSWFYYYGMDVWGQGTTVTVSS VL: DIQLTQSPSFLSASVGDRVTITCRASQGISSYLAWYQQKPGKAPKLLIYAASTLQSGVPSRFSGSGSGTEFTLTISSLQPEDFATYYCQQLNSYPPTFGGGTKVEIKR
